Test results: publication PMC10701521
These are yes or no findings as the source states them, for the method shown. Some results given as binding are weak or reduced against the parent protein; the word gives no strength.

Amino acid sequences for entries named in this document (tags omitted). A change or cut given only in a name is not applied to a line headed by its entry.
UniProt P55088: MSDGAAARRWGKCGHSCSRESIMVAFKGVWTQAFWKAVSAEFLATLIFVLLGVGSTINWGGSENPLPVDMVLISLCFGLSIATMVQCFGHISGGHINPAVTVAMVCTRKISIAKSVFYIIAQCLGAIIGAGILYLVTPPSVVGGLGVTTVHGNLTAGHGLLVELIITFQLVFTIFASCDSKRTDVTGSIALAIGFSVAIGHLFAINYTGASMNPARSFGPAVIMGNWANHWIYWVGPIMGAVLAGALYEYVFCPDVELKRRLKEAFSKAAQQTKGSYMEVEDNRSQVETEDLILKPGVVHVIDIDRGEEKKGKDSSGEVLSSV

Biological target: Aquaporin-4 (AQP4), normal-length (unextended) protein as the only AQP4 in NoX^Hom mouse brain (mouse (endogenous in mouse brain)) (UniProt P55088)
Experiment: native gel or EMSA; Blue native PAGE (3-12% Bis-Tris, 4°C, pH 7) of brain lysates, 60 ug total protein, with 1% digitonin and 0.25% Coomassie G-250; blot with rabbit anti-AQP4 antibody; tetramer and orthogonal array particle (OAP) bands compared across genotypes, n = 3-4 mice per genotype

- binding: binds
Substance: Aquaporin-4 (AQP4), normal-length (unextended) protein as the only AQP4 in NoX^Hom mouse brain (from UniProt P55088-1 1-323)
